Whole data set: some 33,000 sequences, median “E-score (-0.5 to 0.5)” near -0.0014, cut for the highest 2% near 0.25. The list shows a part of the results.
target: T1, Cad1 (UniProt P24813); assay: PBM E-score (8-mer binding enrichment) (E-score (-0.5 to 0.5)); higher = stronger / more preferred TF binding; details: protein concentration: 100 nM; construct: GST-full length
T1 sequence: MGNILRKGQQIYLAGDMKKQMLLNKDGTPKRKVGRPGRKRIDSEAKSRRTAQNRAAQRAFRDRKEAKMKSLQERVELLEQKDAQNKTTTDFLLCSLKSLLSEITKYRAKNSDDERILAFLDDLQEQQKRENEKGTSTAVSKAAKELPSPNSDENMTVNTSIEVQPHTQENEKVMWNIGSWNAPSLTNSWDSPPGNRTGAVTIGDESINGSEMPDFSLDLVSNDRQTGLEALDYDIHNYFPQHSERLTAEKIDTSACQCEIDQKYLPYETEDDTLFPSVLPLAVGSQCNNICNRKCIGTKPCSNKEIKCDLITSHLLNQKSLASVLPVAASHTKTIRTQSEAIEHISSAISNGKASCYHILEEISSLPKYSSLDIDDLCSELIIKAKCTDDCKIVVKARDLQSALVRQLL
In short: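 Universal all-10-mer Agilent arrays, fresh or stripped once, were converted to double-stranded form by primer extension. GST-tagged yeast transcription factors from PURExpress in vitro transcription/translation, full-length or DNA-binding domain only, were applied at about 100-200 nM and detected with fluorescent anti-GST. After masliner normalisation, the Universal PBM Analysis Suite scored each ungapped eight-base word together with its reverse complement by E-score.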

| Sequence | PBM E-score |
| --- | --- |
| GTTTTTCA | 0.0774 |
| AGTTCCGC | 0.112 |
| ACGAGGAT | -0.074 |
| CTCCTTAC | -0.131 |
| AGCGTCCT | -0.0203 |
| GGCAGAAA | 0.18 |
| CGCTAGTC | -0.261 |
| CTCGTCTA | -0.013 |
| AAGTACAC | 0.00466 |
| ATAGGCCC | -0.15 |
| AAGCAATA | 0.109 |
| AACGGCTA | 0.00447 |
| GTCCTCAC | -0.0404 |
| AGTTGGGG | 0.0395 |
| CAAAAGGA | -0.119 |
| CGCACATA | -0.141 |
| CCAGGCCG | -0.0136 |
| AGAGAGCT | -0.287 |
| GACGAACA | -0.00348 |
| ATTCAAGA | 0.0376 |
| GAAACGAC | 0.102 |
| AAAAAAAC | 0.121 |
| ACCCCGTA | -0.0798 |
| GCTGCACA | -0.0662 |
| ACTTGAGG | -0.194 |

| Sequence | PBM E-score |
| --- | --- |
| CAAGGACG | -0.183 |
| ACCTAACA | 0.076 |
| AGACTTTA | -0.0331 |
| AGCACAGA | 0.162 |
| GAAATCTA | -0.00135 |
| ATGTCTGG | 0.0992 |
| AGAATTCT | 0.278 |
| CCTGTCGC | -0.1 |
| AGGGAATG | -0.188 |
| AGACAGTG | -0.00612 |
| CCTTTTTC | -0.0177 |
| GTAGTTTA | 0.181 |
| GAATAGCA | 0.0619 |
| TTATGCAA | 0.0783 |
| ATTGTACA | 0.106 |
| AAGTACGC | -0.0964 |
| ACGCTGGC | 0.0271 |
| AACAGTAC | 0.106 |
| CTTGAGGC | -0.225 |
| GTGACAGA | 0.144 |
| ACTGAACG | -0.115 |
| CAAAGGCC | -0.102 |
| ACGGGCCA | -0.0812 |
| CGCCGGCA | 0.125 |
| CCGACCCA | -0.0445 |

| Sequence | PBM E-score |
| --- | --- |
| GACTGTGC | -0.169 |
| CCCCTGCG | -0.274 |
| CCTTTAAC | 0.0365 |
| AATCCTTA | -0.116 |
| GAAGTCAA | 0.0175 |
| AGCCTTTC | -0.21 |
| ATTCAACA | -0.0203 |
| AAAAGCCT | -0.241 |
| ATAGTCAT | 0.0622 |
| ATTCGCGA | 0.195 |
| CCCCCCCG | -0.456 |
| CACGCTCC | -0.226 |
| CAGATATA | 0.179 |
| CGAATCCG | 0.121 |
| CAAGTATG | 0.0779 |
| TCGAGCGA | 0.104 |
| CCGCACAC | -0.219 |
| CAAATCAA | 0.152 |
| ACACAAAG | 0.0591 |
| AATTGTCC | 0.104 |
| ACAGTACA | 0.0552 |
| AGATCGGA | 0.0863 |
| CCTGATTA | 0.31 |
| CCGACTGA | -0.114 |
| AATAGGGT | 0.0291 |

| Sequence | PBM E-score |
| --- | --- |
| CCGACGCC | -0.0383 |
| CACACTCA | 0.194 |
| ATGTGGCG | -0.0179 |
| GCCCTCGC | -0.101 |
| GTGTATAA | -0.133 |
| CCCGGGCC | -0.265 |
| AGCCTCCC | -0.263 |
| ATACACTA | 0.205 |
| ACGCCGAC | 0.0575 |
| AAATATCC | 0.154 |
| TCGGTTAA | 0.129 |
| CGGGTGGA | -0.0447 |
| CTGCGAGC | 0.116 |
| ATGGCTTC | -0.0365 |
| ACTGAGAC | -0.0406 |
| ATTACGCC | -0.0172 |
| CTCGATTC | 0.0642 |
| GCAAGTAA | -0.0983 |
| AACCGAAT | 0.1 |
| ATCTGTCA | 0.185 |
| AAATTGGT | 0.11 |
| ATTTCCGG | 0.264 |
| ATCTTCAG | 0.184 |
| GTGTGGCA | -0.0898 |
| CACCTTGG | -0.126 |

| Sequence | PBM E-score |
| --- | --- |
| CTGCCGGA | 0.0447 |
| ACGTGGGC | -0.0316 |
| GCAGGCTA | -0.217 |
| ATGGACTA | 0.0818 |
| CGTATGAA | 0.0582 |
| CTTCTTTA | 0.13 |
| CACACGAA | 0.111 |
| AAACCCGC | 0.179 |
| ATTCCAAT | 0.0221 |
| AAGGCGCG | 0.0162 |
| ATGCAATC | -0.0749 |
| CAGGCCGC | -0.032 |
| GTAAATTA | -0.053 |
| ACCTTCAG | 0.00749 |
| TGGTTACA | -0.0113 |
| ATACCTTC | -0.116 |
| ACCAGAAG | -0.184 |
| ACAGACTA | -0.0715 |
| CCGGCTCA | 0.00399 |
| ATGCCGAG | 0.00416 |
| TACCCACA | 0.00034 |
| GAAACAGA | 0.0699 |
| ATGCCGGA | 0.0312 |
| GGCCGGTA | -0.0294 |
| TAAGGGTA | -0.19 |

| Sequence | PBM E-score |
| --- | --- |
| CAATAACC | 0.18 |
| TCTCCCCA | -0.26 |
| ACCCTTCA | -0.0682 |
| CCTTATAG | -0.219 |
| TAGATTGA | 0.00494 |
| ACTAAGCC | 0.199 |
| CCATATCG | 0.0116 |
| CTACCTAC | 0.105 |
| CACAGGTA | -0.0477 |
| AGAAATTA | 0.296 |
| AGAGGAGA | -0.305 |
| CAACGAAC | 0.114 |
| AACTACTT | -0.106 |
| CAAGCGGG | -0.183 |
| GGGGTCAC | -0.266 |
| GTGGAACA | 0.125 |
| CTGCCGGC | -0.00247 |
| CGACAGAG | -0.138 |
| AAGACTGG | -0.046 |
| CGAGTCCG | 0.0505 |
| TACTAAGA | 0.214 |
| AGATAGGC | -0.124 |
| CCTCGTCG | 0.0394 |
| CAGGGGTC | -0.245 |
| TGGAGCCA | -0.106 |

| Sequence | PBM E-score |
| --- | --- |
| ACCACAGC | 0.0415 |
| CTGCGGAC | 0.0703 |
| CTAGTTAA | 0.045 |
| AACTCGGC | 0.125 |
| GGGTCCAC | -0.396 |
| ACTGCAGA | -0.0799 |
| CTGGAAAA | 0.105 |
| CCCCCGGG | -0.353 |
| TCGTGACA | -0.119 |
| CATACCTA | -0.141 |
| ACGTGCCG | 0.0297 |
| CAATAGAG | -0.28 |
| AGCACGGG | -0.039 |
| GAGGTGGA | -0.321 |
| GCCGAGGA | 0.106 |
| ACCGAAGG | -0.00102 |
| CGCGTAGA | 0.126 |
| AGAAGTAT | 0.116 |
| GGAGCAGA | -0.126 |
| AGAAGGTC | -0.0648 |
| CTTCATGC | -0.089 |
| AGCGTCAC | -0.0342 |
| CTTGACCC | -0.212 |
| AGATCAGG | -0.128 |
| GTTCTATA | 0.131 |

| Sequence | PBM E-score |
| --- | --- |
| TAAAGTAA | -0.126 |
| ACCTCAAG | -0.112 |
| CATTGAAC | 0.037 |
| AATGACAT | 0.157 |
| CCCATAGA | -0.262 |
| CGCTAAAA | 0.0433 |
| GTGCGCAC | 0.227 |
| ACATCGGT | -0.151 |
| AAGAGCAA | -0.182 |
| GAAAGTAA | 0.0461 |
| AAGTGACG | 0.101 |
| ACCGCCAG | 0.0409 |
| CCAGCATA | 0.0601 |
| ACACTTCA | 0.114 |
| CTTCAGGA | -0.128 |
| AGTCAAAA | -0.104 |
| AGAGCTCG | 0.0148 |
| AGGCTTGC | -0.138 |
| GTCTCGGA | 0.00393 |
| CCTGATAG | -0.124 |
| ATCGGTCC | -0.165 |
| TGGGATAA | 0.0101 |
| ACTTTACC | 0.24 |
| TCCTAGGA | -0.106 |
| GATATTCC | 0.0127 |

Reprinted at random: five entries already listed, in no set order.

| Sequence | PBM E-score |
| --- | --- |
| ACACTTCA | 0.114 |
| CCCATAGA | -0.262 |
| ACCGCCAG | 0.0409 |
| GATATTCC | 0.0127 |
| AATGACAT | 0.157 |

More entries follow:

| Sequence | PBM E-score |
| --- | --- |
| GGCGCGTA | -0.0178 |
| CCCCCCTA | -0.331 |
| CGCATATA | -0.0685 |
| TATGCACA | 0.0954 |
| ATGATTCC | 0.13 |
| GAGTCGAA | -0.0226 |
| CCGCTCTA | -0.0465 |
| AGGAGGAC | -0.365 |
| CATAGTTC | -0.00622 |
| CGAACACC | 0.0436 |
| CTGGGGGA | -0.306 |
| CAATGGGG | -0.253 |
| ATATAATC | 0.0826 |
| AACCACGG | -0.142 |
| GCATGGCC | -0.149 |
| TCGTACGA | 0.0272 |
| GCCTTCCC | -0.289 |
| CGGCATTA | 0.117 |
| ATTGGGCC | 0.146 |

3 entries from above, as labelled records:
ATATAATC
  PBM E-score = 0.0826
AACCACGG
  PBM E-score = -0.142
GCATGGCC
  PBM E-score = -0.149

Reference: the supplement of paper PMC3334620
